Measured values reported in patent US6339062B1 (Inkine Pharmaceutical Company, Inc., priority 1998, dated 2002).

Test: general procedure: Boc solid-phase peptide synthesis; Boc-Xaa-OCH2-PAM resin (0.2-0.8 mmole/g) or p-mBHA resin (0.2-0.7 mmole/g); dipropylcarbodiimide
Details: whole synthesis, analytical reverse-phase HPLC, scale of the general procedure 0.1 mmole, TFA salt

Row | Substance | final HPLC purity
1 | WSPCSVTCG (cysteine pairing not given here) | a purity of 90%
2 | WSPCSVTCG-NH2 (cysteine pairing not given here) | a purity of 90%

Where no end group is shown, it is not given here.
